In US20080317723A1, “LYMPHATIC ENDOTHELIAL CELLS MATERIALS AND METHODS” (VEGENICS LIMITED, priority 2001, published 2008):
For at least one compound, name, drawing or mass did not settle the structure.

Test system: Akt
Assay: Akt phosphorylation in HMVE cells, Western blot
Format: cell-based, human
Details: inhibitor 30 nM
Protocol: Western blot analysis. Endothelial cells were cultured on 35 mm dishes to near confluence, starved for 24 h in serum free medium and stimulated as indicated. Wortmannin ([…]), LY294002 ([…]), PD98059 (10-25 μM) or GF109203X (2.5-5 μM) were added 1-3 h before stimulation, where indicated. DMSO, into which the inhibitors were dissolved, was used as a control. After the stimulation, the cells were lysed in lysis buffer (50 mM HEPES, pH 7.5, 150 mM NaCl, 10 mM EDTA, 100 mM NaF, 1% TritonX-100 supplemented with 2 mM Na3VO4, 0.5 mM PMSF, 100 U/ml approtinin and 10 μg/ml leupeptin). […] The bound antibodies were detected using horseradish peroxidase conjugated secondary antibodies and enhanced chemiluminescence detection system. The blots were stripped and reprobed with antibodies against Akt, MAPK or CREB for quantification by reading the optical densities of the signals with Multi-Analyst 2.0.1 program (Bio-Rad).
As discussed in the background, a major signal transduction pathway by which growth factor receptors can promote cell survival employs the PI-3-kinase and its downstream target, the serine-threonine kinase Akt. The effect of the different VEGFs on Akt was analyzed by assessing Akt phosphorylation in serine 473 and threonine 308 using phosphospecific antibodies.

COC[C@H]1OC(=O)c2coc3c2[C@@]1(C)C1=C(C3=O)[C@@H]2CCC(=O)[C@@]2(C)C[C@H]1OC(C)=O [wortmannin, reference compound] was tested, and the “effect on Akt phosphorylation in response to all the VEGFs studied” value was “abolished the Akt phosphorylation”.
